Reference: patent US8273386B2, “Use of hop acids in fruit juices, fruit juice concentrates and other beverages to inhibit Alicyclobacillus bacteria” (MillerCoors LLC, priority 2004, dated 2012)
Some entries share one result that the patent states for a list of compounds. At least one compound was matched to its structure with a doubt left.

Test system: Alicyclobacillus acidoterrestris
Test: Minimal Inhibitory Concentration (MIC) assay, broth dilution in BAM, turbidity scored visually
Type: cell-based
Conditions: pH 4.0, 45° C., 72 hours
Protocol: The basic assay was performed by serially diluting the inhibitors using a two-fold dilution series in a nutrient broth. The dilutions provided inhibitor concentrations in the range of 0.025 ppm to 100 ppm. The nutrient broth used was the American Type Culture Collection Bacillus Agar Medium (BAM) (at pH 4.0 and at 45° C.) for the Alicyclobacillus acidoterrestris. All dilution series were inoculated with approximately 10,000 bacteria per 5 ml. broth tube of freshly cultured (using the same medium) cells per 5 ml. of test assay broth. In each assay, an inoculated sample of the broth without any inhibitor addition was used as a control. Growth was evaluated by visually assessing and scoring the development of turbidity in the broth after 72 hours. The results of the studies are summarized in Table 1 which gives the data from testing the effectiveness of the tetrahydroisohumulone, hexahydrocolupulone and colupulone in inhibiting Alicyclobacillus acidoterrestris. […] Hexahydrocolupulone inhibited the Alicyclobacillus acidoterrestris test strain at or above 50 ppm. Colupulone inhibited the Alicyclobacillus acidoterrestris test strain at or above 50 ppm.

| SMILES | Concentration inhibiting the Alicyclobacillus acidoterrestris test strain (MIC) [ppm] |
| --- | --- |
| CC(C)CCC1=C(O)C(C(=O)C(C)C)=C(O)C(CCC(C)C)(CCC(C)C)C1=O [Hexahydrocolupulone, hexahydrocolupulone] | ≥ 50 |
| CC(C)=CCC1=C(O)C(C(=O)C(C)C)=C(O)C(CC=C(C)C)(CC=C(C)C)C1=O [Colupulone, colupulone] | ≥ 50 |
